Laboratory results: patent US10632111B2, “Donepezil derivative and use thereof” (priority 2014, dated 2020)

Experiment: Pharmacokinetic properties in SD rats after intramuscular injection
Conditions: male, rat, in vivo, im, 90 mg/kg
Description: Pharmacokinetic Properties of Compounds of the Present Invention Administered to Rats
In the present embodiment, male SD rats (SPF grade), aged […] and weighing 180 to 220 g, were purchased from Shanghai Slack laboratory Animal Co., Ltd. Throughout the process of the experiment, give the rats free access to food and water.
Adopting grouping of random grouping design, the SD rats for experiments were grouped according to gender and body weight.
The whole blood was collected and placed on ice, followed by centrifugation at 4° C., 8000 rpm and 5 min to collect plasma The plasma was transferred to a 96-well plate and stored at −20° C. until LC-MS/MS examination. Drug concentrations in EDTA (4 mM) anticoagulated plasma of SD rats were determined using LC/MS/MS (Agilent6460). Using WinNonlin 5.2 software, calculate respective relevant pharmacokinetic parameters of each group at each time point after administration according to statistical moment theory.
t1/2 was calculated by the formula t1/2=0.693/λz; λz is an end elimination rate constant derived from the logarithmic concentration—the straight part of the end of time curve, which can be derived from the slope of the logarithmic concentration—the straight part of the end of time curve.

SMILES: COc1cc2c(cc1OC)C(=O)C(CC1CCN(Cc3ccccc3)CC1)C2 (stereo not drawn) [donepezil, Donepezil]
- Cmax: 361 ng/mL
- Tmax: 40.2 min
- half-life: 800 min
